Source: article PMC7642293
No constants are given. Whether binding was seen depends on the method and setting. In cells and extracts the contact can be indirect. A yes stands for co-enrichment or nearness to the bait. Other partners may have been found. No binding means not detected with the bait. One block for each molecule: values may come before it.

Protein sequences, listed by entry. Tags and fused reporters are not part of them.
UniProt Q92922: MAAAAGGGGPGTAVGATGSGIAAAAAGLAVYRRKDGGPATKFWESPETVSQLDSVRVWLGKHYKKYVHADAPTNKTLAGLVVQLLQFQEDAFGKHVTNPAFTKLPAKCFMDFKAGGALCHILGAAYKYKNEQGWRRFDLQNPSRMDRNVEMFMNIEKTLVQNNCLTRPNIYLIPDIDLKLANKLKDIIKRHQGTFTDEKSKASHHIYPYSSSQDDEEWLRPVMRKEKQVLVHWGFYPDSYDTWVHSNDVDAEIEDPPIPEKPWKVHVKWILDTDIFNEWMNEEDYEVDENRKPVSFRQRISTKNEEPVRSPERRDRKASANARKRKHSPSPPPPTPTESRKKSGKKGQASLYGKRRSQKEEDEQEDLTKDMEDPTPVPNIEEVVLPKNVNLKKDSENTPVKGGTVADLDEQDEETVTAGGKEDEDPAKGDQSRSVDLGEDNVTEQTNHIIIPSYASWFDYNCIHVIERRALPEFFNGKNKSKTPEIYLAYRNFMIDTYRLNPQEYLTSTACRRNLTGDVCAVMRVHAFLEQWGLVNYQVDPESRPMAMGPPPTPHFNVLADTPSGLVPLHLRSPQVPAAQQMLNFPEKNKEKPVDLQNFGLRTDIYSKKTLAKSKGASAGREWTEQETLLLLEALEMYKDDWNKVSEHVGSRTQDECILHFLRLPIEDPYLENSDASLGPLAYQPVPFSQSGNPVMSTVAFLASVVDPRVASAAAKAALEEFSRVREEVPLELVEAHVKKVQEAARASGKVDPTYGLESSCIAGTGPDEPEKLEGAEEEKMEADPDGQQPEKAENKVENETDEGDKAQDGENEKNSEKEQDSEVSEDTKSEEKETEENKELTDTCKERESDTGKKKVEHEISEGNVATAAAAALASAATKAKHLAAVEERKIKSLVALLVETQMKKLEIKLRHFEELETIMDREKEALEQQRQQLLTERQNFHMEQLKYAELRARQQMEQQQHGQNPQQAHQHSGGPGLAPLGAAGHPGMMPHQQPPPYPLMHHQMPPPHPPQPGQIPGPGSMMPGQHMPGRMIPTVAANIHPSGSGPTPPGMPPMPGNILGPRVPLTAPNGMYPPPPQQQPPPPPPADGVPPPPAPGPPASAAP
UniProt P51532: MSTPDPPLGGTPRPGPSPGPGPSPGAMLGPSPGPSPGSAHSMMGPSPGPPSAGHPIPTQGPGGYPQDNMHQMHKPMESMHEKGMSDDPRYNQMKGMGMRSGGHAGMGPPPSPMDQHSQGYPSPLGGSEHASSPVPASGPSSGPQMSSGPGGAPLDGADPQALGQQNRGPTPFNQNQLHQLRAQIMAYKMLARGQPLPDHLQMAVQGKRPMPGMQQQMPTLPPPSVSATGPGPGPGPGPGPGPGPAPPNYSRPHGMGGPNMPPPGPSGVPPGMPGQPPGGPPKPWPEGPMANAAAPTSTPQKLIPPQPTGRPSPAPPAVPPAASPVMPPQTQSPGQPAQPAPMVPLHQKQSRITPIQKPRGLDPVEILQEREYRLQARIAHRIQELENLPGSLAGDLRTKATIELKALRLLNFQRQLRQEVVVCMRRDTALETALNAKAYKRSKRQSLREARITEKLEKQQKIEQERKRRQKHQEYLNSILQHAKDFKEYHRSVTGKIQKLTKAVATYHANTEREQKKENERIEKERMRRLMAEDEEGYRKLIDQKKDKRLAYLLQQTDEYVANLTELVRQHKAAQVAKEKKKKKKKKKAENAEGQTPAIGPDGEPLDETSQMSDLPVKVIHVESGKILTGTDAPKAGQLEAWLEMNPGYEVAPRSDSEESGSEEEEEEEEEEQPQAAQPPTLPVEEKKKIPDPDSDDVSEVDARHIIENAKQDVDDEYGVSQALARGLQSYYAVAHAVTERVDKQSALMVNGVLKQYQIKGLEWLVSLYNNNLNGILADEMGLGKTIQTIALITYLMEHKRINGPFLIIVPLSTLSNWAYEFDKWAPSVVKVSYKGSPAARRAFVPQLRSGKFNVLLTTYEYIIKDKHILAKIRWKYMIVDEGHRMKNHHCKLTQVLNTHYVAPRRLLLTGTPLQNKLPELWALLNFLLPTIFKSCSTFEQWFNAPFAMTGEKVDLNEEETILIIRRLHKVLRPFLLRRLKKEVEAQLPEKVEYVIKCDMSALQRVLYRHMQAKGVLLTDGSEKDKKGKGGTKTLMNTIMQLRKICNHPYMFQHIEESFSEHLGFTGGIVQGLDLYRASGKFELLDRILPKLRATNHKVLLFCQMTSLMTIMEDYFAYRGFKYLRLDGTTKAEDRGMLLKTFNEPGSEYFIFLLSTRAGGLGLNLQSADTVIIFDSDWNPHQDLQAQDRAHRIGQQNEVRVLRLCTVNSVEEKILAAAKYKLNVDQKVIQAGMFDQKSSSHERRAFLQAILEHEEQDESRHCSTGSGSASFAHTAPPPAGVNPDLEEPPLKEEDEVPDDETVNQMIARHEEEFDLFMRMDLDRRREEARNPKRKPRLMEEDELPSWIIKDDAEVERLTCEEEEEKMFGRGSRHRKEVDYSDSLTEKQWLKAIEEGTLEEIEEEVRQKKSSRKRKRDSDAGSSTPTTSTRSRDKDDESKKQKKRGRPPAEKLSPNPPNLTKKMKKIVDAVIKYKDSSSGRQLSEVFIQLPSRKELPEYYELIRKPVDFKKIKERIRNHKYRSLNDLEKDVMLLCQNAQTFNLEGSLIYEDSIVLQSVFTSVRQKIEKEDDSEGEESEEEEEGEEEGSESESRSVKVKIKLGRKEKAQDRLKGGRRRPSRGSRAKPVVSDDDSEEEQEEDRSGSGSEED
UniProt P11137: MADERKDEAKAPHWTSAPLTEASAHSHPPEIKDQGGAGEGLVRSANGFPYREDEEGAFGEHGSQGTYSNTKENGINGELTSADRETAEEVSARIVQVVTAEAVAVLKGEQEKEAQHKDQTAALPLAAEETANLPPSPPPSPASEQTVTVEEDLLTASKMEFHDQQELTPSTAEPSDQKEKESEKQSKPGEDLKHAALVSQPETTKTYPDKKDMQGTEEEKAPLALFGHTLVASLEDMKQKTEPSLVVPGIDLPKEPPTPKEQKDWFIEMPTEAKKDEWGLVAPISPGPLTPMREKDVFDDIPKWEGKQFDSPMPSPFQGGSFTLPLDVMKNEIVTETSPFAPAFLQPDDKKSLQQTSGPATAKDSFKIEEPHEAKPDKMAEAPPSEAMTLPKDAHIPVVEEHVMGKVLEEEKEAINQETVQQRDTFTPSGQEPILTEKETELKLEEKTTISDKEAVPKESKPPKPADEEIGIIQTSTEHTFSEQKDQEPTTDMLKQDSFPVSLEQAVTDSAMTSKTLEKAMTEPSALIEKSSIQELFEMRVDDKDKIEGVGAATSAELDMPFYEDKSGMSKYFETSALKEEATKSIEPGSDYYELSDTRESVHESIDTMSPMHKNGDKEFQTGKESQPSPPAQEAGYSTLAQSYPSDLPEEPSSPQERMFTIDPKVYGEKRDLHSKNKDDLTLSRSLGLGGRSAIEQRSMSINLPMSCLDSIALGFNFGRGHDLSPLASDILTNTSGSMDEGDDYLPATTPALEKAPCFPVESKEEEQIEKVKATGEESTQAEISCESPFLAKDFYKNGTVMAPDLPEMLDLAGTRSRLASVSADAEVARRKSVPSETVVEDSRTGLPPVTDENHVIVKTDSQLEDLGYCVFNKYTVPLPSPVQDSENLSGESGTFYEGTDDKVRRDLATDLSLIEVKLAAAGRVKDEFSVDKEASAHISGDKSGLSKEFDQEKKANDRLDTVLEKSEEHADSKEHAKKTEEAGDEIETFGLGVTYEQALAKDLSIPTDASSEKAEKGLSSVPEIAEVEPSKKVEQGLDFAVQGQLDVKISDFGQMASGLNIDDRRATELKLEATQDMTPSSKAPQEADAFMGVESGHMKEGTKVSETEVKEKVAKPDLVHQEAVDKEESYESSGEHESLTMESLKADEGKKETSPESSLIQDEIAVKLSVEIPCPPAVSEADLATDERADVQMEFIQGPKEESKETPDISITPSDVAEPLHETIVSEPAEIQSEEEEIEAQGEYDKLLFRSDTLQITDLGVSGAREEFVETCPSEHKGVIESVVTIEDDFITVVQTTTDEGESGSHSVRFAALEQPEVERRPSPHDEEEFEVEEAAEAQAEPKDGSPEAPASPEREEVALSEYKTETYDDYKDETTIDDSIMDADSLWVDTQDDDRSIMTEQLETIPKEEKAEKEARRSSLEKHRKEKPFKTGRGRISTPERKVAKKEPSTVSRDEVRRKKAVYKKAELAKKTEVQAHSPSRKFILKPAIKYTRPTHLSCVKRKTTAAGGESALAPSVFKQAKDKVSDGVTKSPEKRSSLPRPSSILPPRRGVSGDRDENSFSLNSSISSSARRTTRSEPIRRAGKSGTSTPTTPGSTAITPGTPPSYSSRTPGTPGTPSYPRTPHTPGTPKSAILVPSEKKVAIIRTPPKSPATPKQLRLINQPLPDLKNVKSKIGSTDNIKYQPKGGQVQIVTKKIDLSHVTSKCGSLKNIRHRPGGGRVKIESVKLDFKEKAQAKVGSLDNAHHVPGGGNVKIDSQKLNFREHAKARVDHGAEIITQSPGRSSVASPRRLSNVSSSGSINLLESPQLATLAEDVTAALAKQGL
UniProt Q9NP66: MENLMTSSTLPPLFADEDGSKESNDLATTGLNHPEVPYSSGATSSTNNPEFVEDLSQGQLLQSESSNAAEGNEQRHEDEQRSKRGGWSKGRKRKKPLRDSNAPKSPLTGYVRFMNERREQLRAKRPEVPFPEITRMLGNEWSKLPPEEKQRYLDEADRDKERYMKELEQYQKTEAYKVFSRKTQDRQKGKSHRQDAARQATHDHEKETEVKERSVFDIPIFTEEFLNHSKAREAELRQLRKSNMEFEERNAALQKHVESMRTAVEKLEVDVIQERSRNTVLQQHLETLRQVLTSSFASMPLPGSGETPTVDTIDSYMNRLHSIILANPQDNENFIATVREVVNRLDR
UniProt O94805: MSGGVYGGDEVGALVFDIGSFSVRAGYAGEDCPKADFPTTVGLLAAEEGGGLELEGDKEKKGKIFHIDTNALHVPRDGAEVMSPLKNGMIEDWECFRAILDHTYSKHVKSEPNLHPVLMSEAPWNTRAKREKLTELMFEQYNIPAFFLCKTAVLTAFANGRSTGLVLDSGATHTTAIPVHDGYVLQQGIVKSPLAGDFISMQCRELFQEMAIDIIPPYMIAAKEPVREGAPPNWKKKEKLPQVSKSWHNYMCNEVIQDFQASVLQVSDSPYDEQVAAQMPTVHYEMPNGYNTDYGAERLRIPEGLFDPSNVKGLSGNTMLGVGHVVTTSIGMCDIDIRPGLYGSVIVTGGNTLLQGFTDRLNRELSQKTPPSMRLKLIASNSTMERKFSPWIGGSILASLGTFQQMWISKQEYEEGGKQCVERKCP
UniProt Q92826: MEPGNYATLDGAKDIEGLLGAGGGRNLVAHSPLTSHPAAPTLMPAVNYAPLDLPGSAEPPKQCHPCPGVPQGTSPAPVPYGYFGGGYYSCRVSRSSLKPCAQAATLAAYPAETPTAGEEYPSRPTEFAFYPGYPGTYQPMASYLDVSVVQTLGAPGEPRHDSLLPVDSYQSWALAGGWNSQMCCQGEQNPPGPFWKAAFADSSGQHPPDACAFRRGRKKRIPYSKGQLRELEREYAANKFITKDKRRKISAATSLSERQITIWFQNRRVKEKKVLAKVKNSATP
UniProt Q92782: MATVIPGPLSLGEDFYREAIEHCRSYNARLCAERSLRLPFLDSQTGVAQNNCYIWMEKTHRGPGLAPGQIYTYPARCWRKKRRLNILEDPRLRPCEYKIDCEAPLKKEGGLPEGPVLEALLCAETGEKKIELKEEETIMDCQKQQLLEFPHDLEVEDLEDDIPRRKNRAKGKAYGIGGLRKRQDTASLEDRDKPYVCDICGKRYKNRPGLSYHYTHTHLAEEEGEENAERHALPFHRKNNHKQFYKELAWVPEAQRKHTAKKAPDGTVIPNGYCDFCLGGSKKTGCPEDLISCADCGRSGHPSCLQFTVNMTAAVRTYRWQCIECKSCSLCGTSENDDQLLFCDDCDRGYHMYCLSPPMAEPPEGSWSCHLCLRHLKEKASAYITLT

Tests used:
[1] = biological target: BAF155 (SMARCC1), core SWI/SNF subunit (human (endogenous in NCI-H660 and LNCaP-AR)) (UniProt Q92922); test: affinity purification with mass spectrometry; co-IP with anti-BAF155 antibody (rabbit IgG isotype control) from nuclear fraction of NCI-H660 (CRPC-NE) cells, low stringency, overnight 4 °C, Protein G magnetic beads, washes with CoIP buffer and 150 mM NaCl, 50 mM Tris-HCl pH 8; LC-MS/MS
[2] = biological target: BAF155 (SMARCC1), core SWI/SNF subunit (human (endogenous in NCI-H660 and LNCaP-AR)) (UniProt Q92922); test: affinity purification with mass spectrometry; co-IP with anti-BAF155 antibody (rabbit IgG isotype control) from nuclear fraction of LNCaP-AR (adenocarcinoma) cells, low stringency, overnight 4 °C, Protein G magnetic beads, washes with CoIP buffer and 150 mM NaCl, 50 mM Tris-HCl pH 8; LC-MS/MS
[3] = biological target: SMARCA4 (BRG1) (human (endogenous in NCI-H660 and LNCaP)) (UniProt P51532); test: affinity purification with mass spectrometry; second co-IP (validation): anti-Brg-1 antibodies cross-linked to Protein G magnetic beads, nuclear lysate of NCI-H660 (CRPC-NE) cells overnight, elution with 8 M urea, dimethyl labelling against IgG control, MS
[4] = biological target: SMARCA4 (BRG1) (human (endogenous in NCI-H660 and LNCaP)) (UniProt P51532); test: affinity purification with mass spectrometry; second co-IP (validation): anti-Brg-1 antibodies cross-linked to Protein G magnetic beads, nuclear lysate of LNCaP (adenocarcinoma) cells overnight, elution with 8 M urea, dimethyl labelling against IgG control, MS

- binding [1]: binds
Molecule: microtubule-associated factor MAP2 (from UniProt P11137 1-1827)
- binding [2]: no binding (only in LNCaP-AR (adenocarcinoma) cells)

- binding [1]: binds
Molecule: HMG20A (from UniProt Q9NP66 1-347)

- binding [3]: binds
- binding [1]: binds
B1: transcription factor NK2 homeobox 1 (NKX2.1/TTF-1) (protein, UniProt P43699 1-371)
chain: MSMSPKHTTPFSVSDILSPLEESYKKVGMEGGGLGAPLAAYRQGQAAPPTAAMQQHAVGHHGAVTAAYHMTAAGVPQLSHSAVGGYCNGNLGNMSELPPYQDTMRNSASGPGWYGANPDPRFPAISRFMGPASGMNMSGMGGLGSLGDVSKNMAPLPSAPRRKRRVLFSQAQVYELERRFKQQKYLSAPEREHLASMIHLTPTQVKIWFQNHRYKMKRQAKDKAAQQQLQQDSGGGGGGGGTGCPQQQQAQQQSPRRVAVPVLVKDGKPCQAGAPAPGAASLQGHAQQQAQHQAQAAQAAAAAISVGSGGAGLGAHPGHQPGSAGQSPDLAHHAASPAALQGQVSSLSHLNSSGSDYGTMSCSTLLYGRTW
- binding [4]: no binding (only in LNCaP (adenocarcinoma) cells)
- binding [2]: no binding (only in LNCaP-AR (adenocarcinoma) cells)

- binding [1]: binds
B2: growth factor VGF (protein, UniProt O15240 23-615)
chain: APPGRPEAQPPPLSSEHKEPVAGDAVPGPKDGSAPEVRGARNSEPQDEGELFQGVDPRALAAVLLQALDRPASPPAPSGSQQGPEEEAAEALLTETVRSQTHSLPAPESPEPAAPPRPQTPENGPEASDPSEELEALASLLQELRDFSPSSAKRQQETAAAETETRTHTLTRVNLESPGPERVWRASWGEFQARVPERAPLPPPAPSQFQARMPDSGPLPETHKFGEGVSSPKTHLGEALAPLSKAYQGVAAPFPKARRPESALLGGSEAGERLLQQGLAQVEAGRRQAEATRQAAAQEERLADLASDLLLQYLLQGGARQRGLGGRGLQEAAEERESAREEEEAEQERRGGEERVGEEDEEAAEAEAEAEEAERARQNALLFAEEEDGEAGAEDKRSQEETPGHRRKEAEGTEEGGEEEDDEEMDPQTIDSLIELSTKLHLPADDVVSIIEEVEEKRKRKKNAPPEPVPPPRAAPAPTHVRSPQPPPPAPAPARDELPDWNEVLPPWDREEDEVYPPGPYHPFPNYIRPRTLQPPSALRRRHYHHALPPSRHYPGREAQARRAQEEAEAEERRLQEQEELENYIEHVLLRRP
- binding [2]: no binding (only in LNCaP-AR (adenocarcinoma) cells)

Continued, molecule first:

Molecule: BAF53B (ACTL6B) (from UniProt O94805 1-426)
- binding [3]: binds
- binding [1]: binds

Molecule: HOXB13 (from UniProt Q92826 1-284)
- binding [3]: no binding (only in NCI-H660 (CRPC-NE) cells)
- binding [4]: binds
- binding [1]: no binding (only in NCI-H660 (CRPC-NE) cells)
- binding [2]: binds

Molecule: CHD4 (from UniProt Q14839 1-1912)
- binding [1]: binds

Molecule: BAF45B (DPF1) (from UniProt Q92782 1-387)
- binding [3]: binds
- binding [1]: binds
